# Results from the supplement of paper PMC8728848.
# Some of the results follow.
# B1: XTP3-B-MRH2 (Homo sapiens), Q96DZ1 (protein)
# chain: EFLSGSYCFRGGVGWWKYEFCYGKHVHQYHEDKDSGKTSVVVGTWNQEEHIEWAKKNTARAYHLQDDGTQTVRMVSHFYGNGDICDITDKPRQVTVKLKCKESDSPHAVTVYMLEPHSCQYILGVESPVICKILDTA
# What was measured:
# Experiment in all cases: glycan array binding signal (z-score within array); higher = stronger binding
# Details in all cases: glycan notation: IUPAC condensed, linker removed
# [1] = target: Neu5Ac(a2-6)Gal(b1-4)GlcNAc(b1-3)Gal(b1-4)GlcNAc(b1-3)Gal(b1-4)GlcNAc
# Outline: (§1)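 Glycan array binding is given as a within-array Z-score, which can be read as non-binding when negative. The arrays, 3228 of them, came from the Consortium for Functional Glycomics database and were retained only where the protein sequence was available. Z-scores were averaged across arrays of the same protein sequence at different concentrations or buffers and across linkers.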
# [2] = target: Neu5Ac(a2-6)Gal(b1-4)GlcNAc(b1-3)Gal(b1-4)GlcNAc(b1-3)Gal(b1-4)GlcNAc(b1-2)Man(a1-3)[Neu5Ac(a2-6)Gal(b1-4)GlcNAc(b1-3)Gal(b1-4)GlcNAc(b1-3)Gal(b1-4)GlcNAc(b1-2)Man(a1-6)]GalNAc
# Outline: as §1
# [3] = target: Neu5Ac(a2-6)Gal(b1-4)GlcNAc(b1-3)Gal(b1-4)GlcNAc(b1-3)GalNAc
# Outline: as §1
# [4] = target: Neu5Ac(a2-6)Gal(b1-4)GlcNAc(b1-3)Gal(b1-4)GlcNAc(b1-3)[Neu5Ac(a2-6)Gal(b1-4)GlcNAc(b1-3)Gal(b1-4)GlcNAc(b1-6)]GalNAc
# Outline: as §1
# [5] = target: Neu5Ac(a2-6)Gal(b1-4)GlcNAc(b1-3)Gal(b1-4)GlcNAc(b1-6)[Gal(b1-3)]GalNAc
# Outline: as §1
# [6] = target: Neu5Ac(a2-6)Gal(b1-4)GlcNAc(b1-3)Gal(b1-4)[Fuc(a1-3)]GlcNAc(b1-3)Gal(b1-4)[Fuc(a1-3)]GlcNAc
# Outline: as §1
# [7] = target: Neu5Ac(a2-6)Gal(b1-4)GlcNAc(b1-3)GalNAc
# Outline: as §1
# [8] = target: Neu5Ac(a2-6)Gal(b1-4)GlcNAc(b1-3)[Neu5Ac(a2-6)Gal(b1-4)GlcNAc(b1-6)]GalNAc
# Outline: as §1
# [9] = target: Neu5Ac(a2-6)Gal(b1-4)GlcNAc(b1-6)GalNAc
# Outline: as §1
# [10] = target: Neu5Ac(a2-6)Gal(b1-4)GlcNAc(b1-6)[Gal(b1-3)GlcNAc(b1-3)]Gal(b1-4)Glc
# Outline: as §1
# [11] = target: Neu5Ac(a2-6)Gal(b1-4)GlcNAc(b1-6)[Gal(b1-3)]GalNAc
# Outline: as §1
# [12] = target: Neu5Ac(a2-6)Gal(b1-4)GlcNAc6S
# Outline: as §1
# Neu5Ac(a2-6)GalNAc = target: Neu5Ac(a2-6)GalNAc
# Outline: as §1
# [13] = target: Neu5Ac(a2-6)GalNAc(b1-4)GlcNAc
# Outline: as §1
# [14] = target: Neu5Ac(a2-6)GalNAc(b1-4)GlcNAc6S
# Outline: as §1
# [15] = target: Neu5Ac(a2-6)GlcNAc(b1-4)GlcNAc
# Outline: as §1
# [16] = target: Neu5Ac(a2-6)GlcNAc(b1-4)GlcNAc(b1-4)GlcNAc
# Outline: as §1
# Neu5Ac(a2-8)Neu5Ac = target: Neu5Ac(a2-8)Neu5Ac
# Outline: as §1
# [17] = target: Neu5Ac(a2-8)Neu5Ac(a2-3)Gal(b1-3)GalNAc(b1-4)[Neu5Ac(a2-3)]Gal(b1-4)Glc
# Outline: as §1
# [18] = target: Neu5Ac(a2-8)Neu5Ac(a2-3)Gal(b1-3)GalNAc(b1-4)[Neu5Ac(a2-8)Neu5Ac(a2-3)]Gal(b1-4)Glc
# Outline: as §1
# [19] = target: Neu5Ac(a2-8)Neu5Ac(a2-3)Gal(b1-4)Glc
# Outline: as §1
# [20] = target: Neu5Ac(a2-8)Neu5Ac(a2-3)Gal(b1-4)GlcNAc
# Outline: as §1
# [21] = target: Neu5Ac(a2-8)Neu5Ac(a2-3)[Gal(b1-3)GalNAc(b1-4)]Gal(b1-4)Glc
# Outline: as §1
# [22] = target: Neu5Ac(a2-8)Neu5Ac(a2-3)[GalNAc(b1-4)]Gal(b1-4)Glc
# Outline: as §1
# [23] = target: Neu5Ac(a2-8)Neu5Ac(a2-8)Neu5Ac
# Outline: as §1
# [24] = target: Neu5Ac(a2-8)Neu5Ac(a2-8)Neu5Ac(a2-3)Gal(b1-4)Glc
# Outline: as §1
# [25] = target: Neu5Ac(a2-8)Neu5Ac(a2-8)Neu5Ac(a2-3)[Gal(b1-3)GalNAc(b1-4)]Gal(b1-4)Glc
# Outline: as §1
# [26] = target: Neu5Ac(a2-8)Neu5Ac(a2-8)Neu5Ac(a2-3)[GalNAc(b1-4)]Gal(b1-4)Glc
# Outline: as §1
# [27] = target: Neu5Ac(a2-8)Neu5Ac(a2-8)Neu5Ac(a2-8)Neu5Ac(a2-3)[GalNAc(b1-4)]Gal(b1-4)Glc
# Outline: as §1
# [28] = target: Neu5Ac(a2-8)Neu5Gc(a2-3)Gal(b1-4)GlcNAc
# Outline: as §1
# [29] = target: Neu5Ac(b2-6)Gal(b1-4)GlcNAc
# Outline: as §1
# Neu5Ac(b2-6)GalNAc = target: Neu5Ac(b2-6)GalNAc
# Outline: as §1
# [30] = target: Neu5Ac9Ac(a2-3)Gal(b1-3)GlcNAc
# Outline: as §1
# [31] = target: Neu5Ac9Ac(a2-3)Gal(b1-4)GlcNAc
# Outline: as §1
# [32] = target: Neu5Ac9Ac(a2-6)Gal(b1-4)GlcNAc
# Outline: as §1
# [33] = target: Neu5Gc(a2-3)Gal(b1-3)GlcNAc
# Outline: as §1
# [34] = target: Neu5Gc(a2-3)Gal(b1-3)[Fuc(a1-4)]GlcNAc
# Outline: as §1
# Neu5Gc(a2-3)Gal(b1-4)Glc = target: Neu5Gc(a2-3)Gal(b1-4)Glc
# Outline: as §1
# [35] = target: Neu5Gc(a2-3)Gal(b1-4)GlcNAc
# Outline: as §1
# [36] = target: Neu5Gc(a2-3)Gal(b1-4)GlcNAc(b1-3)Gal(b1-4)GlcNAc(b1-2)Man(a1-3)[Neu5Gc(a2-3)Gal(b1-4)GlcNAc(b1-3)Gal(b1-4)GlcNAc(b1-2)Man(a1-6)]Man(b1-4)GlcNAc(b1-4)GlcNAc
# Outline: as §1
# [37] = target: Neu5Gc(a2-3)Gal(b1-4)[Fuc(a1-3)]GlcNAc
# Outline: as §1
# [38] = target: Neu5Gc(a2-6)Gal(b1-4)GlcNAc
# Outline: as §1
# Neu5Gc(a2-6)GalNAc = target: Neu5Gc(a2-6)GalNAc
# Outline: as §1
# [39] = target: Neu5Gc(a2-8)Neu5Ac(a2-3)Gal(b1-4)GlcNAc
# Outline: as §1
# [40] = target: Neu5Gc(a2-8)Neu5Gc(a2-3)Gal(b1-4)GlcNAc
# Outline: as §1
binder,measurement,setting,value
B1,glycan array binding signal (z-score),[1],-0.857
same,glycan array binding signal (z-score),[2],0.077
same,glycan array binding signal (z-score),[3],-0.693
same,glycan array binding signal (z-score),[4],-0.173
same,glycan array binding signal (z-score),[5],-1.16
same,glycan array binding signal (z-score),[6],-0.622
same,glycan array binding signal (z-score),[7],0.124
same,glycan array binding signal (z-score),[8],-0.205
same,glycan array binding signal (z-score),[9],0.675
same,glycan array binding signal (z-score),[10],0.08
same,glycan array binding signal (z-score),[11],0.541
same,glycan array binding signal (z-score),[12],1.55
same,glycan array binding signal (z-score),Neu5Ac(a2-6)GalNAc,1.2
same,glycan array binding signal (z-score),[13],0.042
same,glycan array binding signal (z-score),[14],-0.187
same,glycan array binding signal (z-score),[15],0.82
same,glycan array binding signal (z-score),[16],0.385
same,glycan array binding signal (z-score),Neu5Ac(a2-8)Neu5Ac,0.01
same,glycan array binding signal (z-score),[17],0.953
same,glycan array binding signal (z-score),[18],-0.5
same,glycan array binding signal (z-score),[19],-1.04
same,glycan array binding signal (z-score),[20],0.479
same,glycan array binding signal (z-score),[21],-0.878
same,glycan array binding signal (z-score),[22],0.834
same,glycan array binding signal (z-score),[23],0.237
same,glycan array binding signal (z-score),[24],-0.439
same,glycan array binding signal (z-score),[25],2.07
same,glycan array binding signal (z-score),[26],1.37
same,glycan array binding signal (z-score),[27],1.99
same,glycan array binding signal (z-score),[28],-0.171
same,glycan array binding signal (z-score),[29],0.4
same,glycan array binding signal (z-score),Neu5Ac(b2-6)GalNAc,-0.746
same,glycan array binding signal (z-score),[30],-0.138
same,glycan array binding signal (z-score),[31],-0.6
same,glycan array binding signal (z-score),[32],0.258
same,glycan array binding signal (z-score),[33],-1.19
same,glycan array binding signal (z-score),[34],-0.235
same,glycan array binding signal (z-score),Neu5Gc(a2-3)Gal(b1-4)Glc,0.132
same,glycan array binding signal (z-score),[35],0.003
same,glycan array binding signal (z-score),[36],-0.501
same,glycan array binding signal (z-score),[37],1.08
same,glycan array binding signal (z-score),[38],-0.292
same,glycan array binding signal (z-score),Neu5Gc(a2-6)GalNAc,-1.02
same,glycan array binding signal (z-score),[39],0.283
same,glycan array binding signal (z-score),[40],2.85

# 3 records drawn at random from the list so far, as already listed:
binder,measurement,setting,value
B1,glycan array binding signal (z-score),[4],-0.173
same,glycan array binding signal (z-score),[15],0.82
same,glycan array binding signal (z-score),[18],-0.5
